Measurements as given in publication PMC7415815.
These are yes or no findings as the source states them, for the method shown. Binding seen in cells or lysates may run through a third protein. Some entries that bind do so weakly or less than the wild type.

The chains behind the UniProt entries cited, without tags or fusion partners.
UniProt P29590: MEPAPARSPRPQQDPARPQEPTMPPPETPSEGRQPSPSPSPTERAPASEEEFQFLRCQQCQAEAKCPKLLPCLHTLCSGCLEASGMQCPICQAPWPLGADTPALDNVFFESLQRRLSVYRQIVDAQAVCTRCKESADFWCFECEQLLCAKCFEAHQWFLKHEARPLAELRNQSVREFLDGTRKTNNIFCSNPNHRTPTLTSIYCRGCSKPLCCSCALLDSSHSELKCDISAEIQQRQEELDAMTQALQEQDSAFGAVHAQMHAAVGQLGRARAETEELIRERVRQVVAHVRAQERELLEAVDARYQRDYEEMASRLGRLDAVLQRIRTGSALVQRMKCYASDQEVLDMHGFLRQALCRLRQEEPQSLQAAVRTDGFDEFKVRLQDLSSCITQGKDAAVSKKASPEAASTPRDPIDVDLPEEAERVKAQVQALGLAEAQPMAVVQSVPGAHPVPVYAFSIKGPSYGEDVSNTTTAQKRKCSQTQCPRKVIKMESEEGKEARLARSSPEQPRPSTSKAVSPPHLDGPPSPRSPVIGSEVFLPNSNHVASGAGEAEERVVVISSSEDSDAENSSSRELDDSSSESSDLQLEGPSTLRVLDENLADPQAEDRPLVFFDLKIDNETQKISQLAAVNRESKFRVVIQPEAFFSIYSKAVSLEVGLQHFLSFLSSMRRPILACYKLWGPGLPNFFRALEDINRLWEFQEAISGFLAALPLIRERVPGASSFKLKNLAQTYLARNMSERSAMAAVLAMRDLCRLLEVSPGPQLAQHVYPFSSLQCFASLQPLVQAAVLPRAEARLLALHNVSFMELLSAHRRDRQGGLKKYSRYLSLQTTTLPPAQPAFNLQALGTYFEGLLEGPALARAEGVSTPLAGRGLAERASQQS

Molecular target: autophagic cargo receptor P62 (human (endogenous in SH-SY5Y)) (UniProt Q13501)
Assay: co-IP; SH-SY5Y cells treated with or without CORT (50 uM, 48 h); lysate incubated with anti-LC3 or anti-P62 antibody for 12 h, then agarose-protein A/G beads for 12 h; beads washed five times with cell lysis buffer; immunoblot with anti-PML antibody

## Promyelocytic leukemia protein (PML) (from UniProt P29590 1-882)
  binding: binds
